Measured values: paper PMC8777168
No constants are given. Whether binding was seen depends on the method and setting. Binding seen in cells or lysates may run through a third protein. Some entries that bind do so weakly or less than the wild type.

Protein sequences, listed by entry. Tags and fused reporters are not part of them.
UniProt Q9UNE7: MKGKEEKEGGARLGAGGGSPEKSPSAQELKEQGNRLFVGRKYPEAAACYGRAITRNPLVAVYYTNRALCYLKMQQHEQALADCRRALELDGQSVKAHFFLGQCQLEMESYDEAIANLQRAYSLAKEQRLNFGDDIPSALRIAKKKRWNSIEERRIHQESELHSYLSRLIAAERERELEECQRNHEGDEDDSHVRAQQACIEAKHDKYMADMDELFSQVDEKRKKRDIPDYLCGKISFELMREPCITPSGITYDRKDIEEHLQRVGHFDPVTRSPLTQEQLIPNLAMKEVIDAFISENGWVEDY
UniProt Q04206: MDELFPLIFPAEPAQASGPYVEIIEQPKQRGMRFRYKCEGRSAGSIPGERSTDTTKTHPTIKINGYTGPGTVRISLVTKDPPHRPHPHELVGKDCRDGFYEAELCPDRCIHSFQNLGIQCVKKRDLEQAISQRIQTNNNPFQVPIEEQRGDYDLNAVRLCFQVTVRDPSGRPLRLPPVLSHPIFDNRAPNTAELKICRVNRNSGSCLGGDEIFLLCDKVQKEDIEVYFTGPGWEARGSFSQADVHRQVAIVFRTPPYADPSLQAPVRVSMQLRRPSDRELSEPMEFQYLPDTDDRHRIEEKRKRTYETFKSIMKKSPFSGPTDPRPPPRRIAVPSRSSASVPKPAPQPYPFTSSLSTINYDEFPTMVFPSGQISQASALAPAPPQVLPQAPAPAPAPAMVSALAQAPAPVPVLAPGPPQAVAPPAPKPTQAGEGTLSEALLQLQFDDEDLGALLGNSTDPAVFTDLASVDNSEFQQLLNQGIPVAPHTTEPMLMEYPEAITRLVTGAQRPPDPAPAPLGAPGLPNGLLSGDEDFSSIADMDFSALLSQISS

Columns and labels:
[1] = biological target: T1, macrophage migration inhibitory factor (MIF) (human (endogenous in HOS/143B)) (UniProt P14174); experiment: co-IP; total cellular proteins of HOS/143B cells, immunoprecipitation with antibodies against MIF, western blots for p65, CD74 or STUB1; cells with or without 40 μM 4-IPP for 12 h
T1 sequence: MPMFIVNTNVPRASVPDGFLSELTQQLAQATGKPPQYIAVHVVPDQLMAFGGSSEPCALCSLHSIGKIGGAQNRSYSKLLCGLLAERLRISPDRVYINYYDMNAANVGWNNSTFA

MIF in 293T cells = biological target: T2, MIF in 293T cells (UniProt P14174); experiment: co-IP; 293T cells transfected for 24 h with STUB1 truncation or mutation plasmids, lysed, coimmunoprecipitation and western blotting
T2 sequence: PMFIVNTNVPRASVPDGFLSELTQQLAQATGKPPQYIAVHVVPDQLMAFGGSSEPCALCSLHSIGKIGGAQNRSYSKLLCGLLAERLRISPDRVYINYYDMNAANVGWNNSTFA

With “E3 ubiquitin-protein ligase STUB1 (from UniProt Q9UNE7 1-303) (enzyme)” the binding [1] was “binds”.
“STUB1, expressed from a plasmid in 293T cells (from UniProt Q9UNE7 1-303) (enzyme)” was tested, and the binding (MIF in 293T cells) was “binds”.
p65 (from UniProt Q04206 1-551) was tested, and the binding [1] was “binds”.
